# Assay results from the supplement of paper PMC11732987, “Enantioselective OTUD7B fragment discovery through chemoproteomics screening and high-throughput optimisation” (Communications Chemistry, 2025).
# Sequences of proteins named here, by UniProt entry; tags and fusion partners are left off. A change or cut given only in a name is not applied to a line headed by its entry. Residues count along the entry.
# UniProt Q5UIP0, 2120-2147: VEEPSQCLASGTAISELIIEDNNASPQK
# UniProt O15211: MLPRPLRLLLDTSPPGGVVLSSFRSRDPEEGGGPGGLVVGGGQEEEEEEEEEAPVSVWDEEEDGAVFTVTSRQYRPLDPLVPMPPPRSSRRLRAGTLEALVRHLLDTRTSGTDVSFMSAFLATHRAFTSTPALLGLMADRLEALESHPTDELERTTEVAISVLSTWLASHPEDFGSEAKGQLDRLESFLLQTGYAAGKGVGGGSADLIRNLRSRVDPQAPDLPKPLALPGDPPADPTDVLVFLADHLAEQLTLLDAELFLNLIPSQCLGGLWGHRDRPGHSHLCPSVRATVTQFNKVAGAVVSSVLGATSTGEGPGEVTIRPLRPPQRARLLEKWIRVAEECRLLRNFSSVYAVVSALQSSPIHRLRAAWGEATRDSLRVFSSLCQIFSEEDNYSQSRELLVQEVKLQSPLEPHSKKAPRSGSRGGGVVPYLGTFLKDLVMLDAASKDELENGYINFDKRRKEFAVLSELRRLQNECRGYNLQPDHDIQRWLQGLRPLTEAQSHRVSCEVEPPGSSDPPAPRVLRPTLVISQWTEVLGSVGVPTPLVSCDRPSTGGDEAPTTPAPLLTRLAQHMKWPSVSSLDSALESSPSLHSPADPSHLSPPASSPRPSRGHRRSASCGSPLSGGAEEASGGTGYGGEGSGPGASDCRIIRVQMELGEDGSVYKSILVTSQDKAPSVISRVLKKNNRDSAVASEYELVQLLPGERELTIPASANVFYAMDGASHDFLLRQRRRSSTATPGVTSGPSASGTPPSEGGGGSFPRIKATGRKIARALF
# UniProt P49792, whole entry, looked up: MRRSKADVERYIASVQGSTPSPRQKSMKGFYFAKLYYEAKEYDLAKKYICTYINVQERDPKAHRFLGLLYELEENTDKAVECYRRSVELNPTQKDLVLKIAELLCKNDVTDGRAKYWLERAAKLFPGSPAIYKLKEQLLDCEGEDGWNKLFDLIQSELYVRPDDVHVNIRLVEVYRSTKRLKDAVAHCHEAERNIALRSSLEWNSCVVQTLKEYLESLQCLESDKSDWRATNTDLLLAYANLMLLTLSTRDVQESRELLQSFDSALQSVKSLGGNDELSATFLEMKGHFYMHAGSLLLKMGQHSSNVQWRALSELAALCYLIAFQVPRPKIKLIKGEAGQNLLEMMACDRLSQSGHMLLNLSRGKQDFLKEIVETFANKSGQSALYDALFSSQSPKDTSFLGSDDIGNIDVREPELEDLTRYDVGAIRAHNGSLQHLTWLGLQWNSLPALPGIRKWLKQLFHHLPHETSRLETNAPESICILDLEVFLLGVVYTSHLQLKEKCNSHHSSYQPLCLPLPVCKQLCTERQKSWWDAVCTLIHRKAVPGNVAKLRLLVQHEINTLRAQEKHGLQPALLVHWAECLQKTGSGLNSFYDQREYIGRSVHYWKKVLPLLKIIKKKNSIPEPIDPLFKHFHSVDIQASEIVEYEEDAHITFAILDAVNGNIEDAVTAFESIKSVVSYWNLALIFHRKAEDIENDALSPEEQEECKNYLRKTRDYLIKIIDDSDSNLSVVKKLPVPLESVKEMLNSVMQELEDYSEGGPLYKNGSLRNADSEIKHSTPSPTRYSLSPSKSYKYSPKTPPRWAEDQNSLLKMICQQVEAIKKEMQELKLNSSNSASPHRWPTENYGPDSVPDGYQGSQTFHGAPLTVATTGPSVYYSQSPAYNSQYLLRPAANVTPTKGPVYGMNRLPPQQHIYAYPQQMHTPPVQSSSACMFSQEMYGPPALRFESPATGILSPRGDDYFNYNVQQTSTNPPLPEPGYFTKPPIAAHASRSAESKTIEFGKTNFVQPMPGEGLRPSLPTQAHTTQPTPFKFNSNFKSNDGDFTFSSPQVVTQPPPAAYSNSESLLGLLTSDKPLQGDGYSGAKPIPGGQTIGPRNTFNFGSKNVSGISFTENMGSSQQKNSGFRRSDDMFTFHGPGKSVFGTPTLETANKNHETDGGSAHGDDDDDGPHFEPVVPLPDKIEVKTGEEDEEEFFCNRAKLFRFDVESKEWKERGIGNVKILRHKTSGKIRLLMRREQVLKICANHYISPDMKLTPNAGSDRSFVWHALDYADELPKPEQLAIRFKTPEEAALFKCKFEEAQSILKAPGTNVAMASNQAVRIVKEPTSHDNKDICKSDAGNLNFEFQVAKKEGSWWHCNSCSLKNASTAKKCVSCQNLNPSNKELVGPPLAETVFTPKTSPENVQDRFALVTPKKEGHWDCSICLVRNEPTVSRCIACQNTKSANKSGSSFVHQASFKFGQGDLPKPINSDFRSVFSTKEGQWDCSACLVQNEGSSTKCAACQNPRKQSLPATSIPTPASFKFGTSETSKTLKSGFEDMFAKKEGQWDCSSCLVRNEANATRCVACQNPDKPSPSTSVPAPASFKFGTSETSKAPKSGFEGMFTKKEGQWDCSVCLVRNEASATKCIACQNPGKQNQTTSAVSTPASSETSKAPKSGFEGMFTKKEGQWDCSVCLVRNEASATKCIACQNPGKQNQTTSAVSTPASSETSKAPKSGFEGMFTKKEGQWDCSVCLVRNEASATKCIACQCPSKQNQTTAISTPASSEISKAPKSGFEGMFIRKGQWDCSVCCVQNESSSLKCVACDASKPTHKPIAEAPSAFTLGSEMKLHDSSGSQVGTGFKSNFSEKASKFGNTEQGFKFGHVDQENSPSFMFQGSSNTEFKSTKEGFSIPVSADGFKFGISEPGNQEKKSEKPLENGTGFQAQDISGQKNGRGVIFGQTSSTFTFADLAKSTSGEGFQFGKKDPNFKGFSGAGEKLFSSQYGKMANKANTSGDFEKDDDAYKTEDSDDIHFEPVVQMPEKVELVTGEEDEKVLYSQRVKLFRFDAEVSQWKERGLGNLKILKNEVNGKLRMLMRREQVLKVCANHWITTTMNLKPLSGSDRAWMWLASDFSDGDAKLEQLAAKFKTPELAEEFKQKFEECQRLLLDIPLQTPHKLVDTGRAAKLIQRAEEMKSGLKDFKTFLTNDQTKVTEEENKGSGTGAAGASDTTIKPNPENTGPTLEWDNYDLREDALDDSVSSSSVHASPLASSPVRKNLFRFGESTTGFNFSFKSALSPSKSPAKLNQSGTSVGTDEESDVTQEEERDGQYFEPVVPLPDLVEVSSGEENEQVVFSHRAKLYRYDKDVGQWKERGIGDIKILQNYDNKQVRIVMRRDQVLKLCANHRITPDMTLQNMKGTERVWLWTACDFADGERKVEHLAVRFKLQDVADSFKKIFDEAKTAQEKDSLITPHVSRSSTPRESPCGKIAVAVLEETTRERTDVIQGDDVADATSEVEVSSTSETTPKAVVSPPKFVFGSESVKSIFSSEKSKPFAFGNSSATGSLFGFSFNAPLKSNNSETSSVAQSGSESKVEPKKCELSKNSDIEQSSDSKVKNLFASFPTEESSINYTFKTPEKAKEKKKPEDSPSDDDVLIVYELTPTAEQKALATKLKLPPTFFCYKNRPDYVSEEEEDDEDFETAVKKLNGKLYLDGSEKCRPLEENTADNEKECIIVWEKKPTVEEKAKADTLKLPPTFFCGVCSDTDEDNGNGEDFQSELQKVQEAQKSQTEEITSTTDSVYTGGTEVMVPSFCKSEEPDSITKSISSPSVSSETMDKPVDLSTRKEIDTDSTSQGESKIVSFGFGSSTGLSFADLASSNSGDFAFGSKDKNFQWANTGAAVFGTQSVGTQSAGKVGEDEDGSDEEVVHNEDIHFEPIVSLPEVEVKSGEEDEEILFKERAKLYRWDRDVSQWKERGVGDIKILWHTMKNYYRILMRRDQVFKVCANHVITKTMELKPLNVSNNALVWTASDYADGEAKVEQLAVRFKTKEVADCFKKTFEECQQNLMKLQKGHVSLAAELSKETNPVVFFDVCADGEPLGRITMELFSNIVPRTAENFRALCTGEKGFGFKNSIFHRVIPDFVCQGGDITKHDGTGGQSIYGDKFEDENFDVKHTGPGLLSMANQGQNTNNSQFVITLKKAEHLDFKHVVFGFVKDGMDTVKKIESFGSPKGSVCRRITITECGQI
# UniProt O43353, 411-430: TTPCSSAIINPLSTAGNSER
# UniProt Q8TDY2: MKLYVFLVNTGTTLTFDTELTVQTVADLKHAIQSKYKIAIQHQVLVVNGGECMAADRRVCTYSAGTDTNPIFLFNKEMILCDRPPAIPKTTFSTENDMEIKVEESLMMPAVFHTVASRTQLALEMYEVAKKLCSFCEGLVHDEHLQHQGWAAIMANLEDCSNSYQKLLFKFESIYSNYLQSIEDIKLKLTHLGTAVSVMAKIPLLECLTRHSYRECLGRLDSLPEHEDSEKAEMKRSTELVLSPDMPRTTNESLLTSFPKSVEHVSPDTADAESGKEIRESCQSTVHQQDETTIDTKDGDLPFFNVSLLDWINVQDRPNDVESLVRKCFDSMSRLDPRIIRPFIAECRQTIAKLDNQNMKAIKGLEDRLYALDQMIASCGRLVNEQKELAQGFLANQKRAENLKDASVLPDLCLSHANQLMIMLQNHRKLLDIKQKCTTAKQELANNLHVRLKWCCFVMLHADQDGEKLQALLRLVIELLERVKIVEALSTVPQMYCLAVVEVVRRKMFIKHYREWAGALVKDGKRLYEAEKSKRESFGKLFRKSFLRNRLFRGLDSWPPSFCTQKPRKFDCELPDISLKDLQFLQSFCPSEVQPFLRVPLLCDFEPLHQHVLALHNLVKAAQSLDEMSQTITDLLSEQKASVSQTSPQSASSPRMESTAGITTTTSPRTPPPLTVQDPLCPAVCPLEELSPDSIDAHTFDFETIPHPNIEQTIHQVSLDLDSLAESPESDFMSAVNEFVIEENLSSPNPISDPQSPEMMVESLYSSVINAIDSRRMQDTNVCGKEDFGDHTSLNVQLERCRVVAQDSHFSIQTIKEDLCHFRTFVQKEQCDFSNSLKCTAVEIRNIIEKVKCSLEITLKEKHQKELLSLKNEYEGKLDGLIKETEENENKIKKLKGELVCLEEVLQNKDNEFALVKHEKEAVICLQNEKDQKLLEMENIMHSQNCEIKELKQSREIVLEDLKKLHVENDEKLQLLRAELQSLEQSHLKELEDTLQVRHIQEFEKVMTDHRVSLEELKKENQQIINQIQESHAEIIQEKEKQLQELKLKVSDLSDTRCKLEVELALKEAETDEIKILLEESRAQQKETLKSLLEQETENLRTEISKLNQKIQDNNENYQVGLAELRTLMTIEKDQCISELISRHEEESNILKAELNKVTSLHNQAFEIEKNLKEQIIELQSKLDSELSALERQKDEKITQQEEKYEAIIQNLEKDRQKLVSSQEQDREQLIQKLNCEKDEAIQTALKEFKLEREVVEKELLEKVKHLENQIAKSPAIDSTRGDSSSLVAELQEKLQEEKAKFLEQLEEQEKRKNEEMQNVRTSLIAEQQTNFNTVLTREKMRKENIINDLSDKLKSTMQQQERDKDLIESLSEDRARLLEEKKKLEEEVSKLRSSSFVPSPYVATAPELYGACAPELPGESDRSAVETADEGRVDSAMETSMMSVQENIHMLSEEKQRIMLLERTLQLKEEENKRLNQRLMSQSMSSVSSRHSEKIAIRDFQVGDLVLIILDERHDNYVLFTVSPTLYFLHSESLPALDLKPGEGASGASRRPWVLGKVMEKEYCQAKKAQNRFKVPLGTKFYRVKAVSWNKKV
# UniProt Q86X10, 262-285: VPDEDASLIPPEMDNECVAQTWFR
# UniProt Q99708: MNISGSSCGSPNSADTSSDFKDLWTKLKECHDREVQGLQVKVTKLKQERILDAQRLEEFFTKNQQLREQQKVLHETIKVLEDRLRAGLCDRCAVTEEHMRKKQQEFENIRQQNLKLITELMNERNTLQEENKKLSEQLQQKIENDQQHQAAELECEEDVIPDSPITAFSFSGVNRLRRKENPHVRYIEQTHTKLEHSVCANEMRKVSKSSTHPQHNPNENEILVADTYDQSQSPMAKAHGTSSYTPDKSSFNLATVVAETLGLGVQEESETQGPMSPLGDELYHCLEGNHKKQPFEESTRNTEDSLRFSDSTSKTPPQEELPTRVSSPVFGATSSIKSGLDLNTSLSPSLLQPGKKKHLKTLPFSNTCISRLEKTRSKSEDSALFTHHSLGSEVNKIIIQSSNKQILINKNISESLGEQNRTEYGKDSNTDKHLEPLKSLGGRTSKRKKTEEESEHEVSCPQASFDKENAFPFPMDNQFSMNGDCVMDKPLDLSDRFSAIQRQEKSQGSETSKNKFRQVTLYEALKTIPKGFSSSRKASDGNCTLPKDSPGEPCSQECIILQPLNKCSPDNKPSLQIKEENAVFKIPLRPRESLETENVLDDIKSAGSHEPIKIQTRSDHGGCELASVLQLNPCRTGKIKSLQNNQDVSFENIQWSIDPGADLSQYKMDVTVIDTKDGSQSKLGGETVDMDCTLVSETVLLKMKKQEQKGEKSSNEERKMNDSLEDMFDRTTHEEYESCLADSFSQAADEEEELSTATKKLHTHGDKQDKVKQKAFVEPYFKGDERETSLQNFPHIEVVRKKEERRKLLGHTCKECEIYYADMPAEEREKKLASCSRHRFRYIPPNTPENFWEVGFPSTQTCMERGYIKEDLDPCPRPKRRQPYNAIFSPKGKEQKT
# Some of the results follow. The data scatter; read single values as rough.
# Compound: ClCC(=O)N[C@H]1CCCc2ccccc12
# Test: log2 mean competition ratio of IA-DTB cysteine labelling (DMSO/compound) (log2 ratio); higher = stronger cysteine engagement by compound
# Settings: 50 µM; treatment time: 4 h; cell line lysate: HEK293T
# Protocol: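 IA-DTB competitive cysteine chemoproteomics in HEK293T RIPA lysate. Lysates were treated with compound 29 or 30 at 50 or 200 µM for 4 h, then IA-DTB (500 µM, 1 h), trypsin-digested, NeutrAvidin-enriched and analysed by diaPASEF. Competition ratio = intensity DMSO / intensity compound (n=4 treated, n=64 DMSO); binding: mean log2 CR ≥ 1 and p ≤ 0.05 plus QC filters. Target is the cysteine site.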
row,Target,log2 mean competition ratio
1,RENBP C249 (UniProt P51606),-0.0389
2,RIF1 C2126 (UniProt Q5UIP0),0.0602
3,RMI1 C268 (UniProt Q9H9A7),0.505
4,RALBP1 C4 (UniProt Q15311),-0.00806
5,RGL2 C508 (UniProt O15211),0.188
6,RANBP2 C3032 (UniProt P49792),0.258
7,RDH13 C30 (UniProt Q8NBN7),0.185
8,RIPK2 C414 (UniProt O43353),0.505
9,RB1CC1 C572 (UniProt Q8TDY2),-0.311
10,RCL1 C171,0.138
11,RB1CC1 C81 (UniProt Q8TDY2),-0.174
12,RAI14 C68 (UniProt Q9P0K7),-0.158
13,RALGAPB C278 (UniProt Q86X10),0.429
14,RANBP2 C1243 (UniProt P49792),-0.293
15,RBL2 C368 (UniProt Q08999),-0.3
16,RAP1B C118,-0.609
17,RASSF2 C251 (UniProt P50749),0.101
18,RBBP8 C567 (UniProt Q99708),0.376
19,RBM45 C90 (UniProt Q8IUH3),-0.444
20,RBM41 C136 (UniProt Q96IZ5),-0.151

# Same assay, conditions: 200 µM; treatment time: 4 h; cell line lysate: HEK293T
row,Target,log2 mean competition ratio
1,RENBP C249 (UniProt P51606),0.325
2,RIF1 C2126 (UniProt Q5UIP0),-0.286
3,RMI1 C268 (UniProt Q9H9A7),-0.0764
4,RALBP1 C4 (UniProt Q15311),-0.137
5,RGL2 C508 (UniProt O15211),-0.413
6,RANBP2 C3032 (UniProt P49792),-0.214
7,RDH13 C30 (UniProt Q8NBN7),-0.174
8,RIPK2 C414 (UniProt O43353),0.228
9,RB1CC1 C572 (UniProt Q8TDY2),0.147
10,RCL1 C171,-0.00486
11,RB1CC1 C81 (UniProt Q8TDY2),0.246
12,RAI14 C68 (UniProt Q9P0K7),-0.0406
13,RALGAPB C278 (UniProt Q86X10),0.0266
14,RANBP2 C1243 (UniProt P49792),-0.167
15,RBL2 C368 (UniProt Q08999),-0.175
16,RAP1B C118,0.316
17,RASSF2 C251 (UniProt P50749),0.011
18,RBBP8 C567 (UniProt Q99708),-0.0341
19,RBM45 C90 (UniProt Q8IUH3),-0.0856
20,RBM41 C136 (UniProt Q96IZ5),0.171
